According to article PMC10413113:
Results are given in words; binding and its absence hold for the method and conditions named. Binding seen in cells or lysates may run through a third protein. A yes stands for co-enrichment or nearness to the bait. Other partners may have been found.

T1: EVC (endogenous mouse EVC protein) (mouse (endogenous in MEFs)) (UniProt P57680)
T1 sequence: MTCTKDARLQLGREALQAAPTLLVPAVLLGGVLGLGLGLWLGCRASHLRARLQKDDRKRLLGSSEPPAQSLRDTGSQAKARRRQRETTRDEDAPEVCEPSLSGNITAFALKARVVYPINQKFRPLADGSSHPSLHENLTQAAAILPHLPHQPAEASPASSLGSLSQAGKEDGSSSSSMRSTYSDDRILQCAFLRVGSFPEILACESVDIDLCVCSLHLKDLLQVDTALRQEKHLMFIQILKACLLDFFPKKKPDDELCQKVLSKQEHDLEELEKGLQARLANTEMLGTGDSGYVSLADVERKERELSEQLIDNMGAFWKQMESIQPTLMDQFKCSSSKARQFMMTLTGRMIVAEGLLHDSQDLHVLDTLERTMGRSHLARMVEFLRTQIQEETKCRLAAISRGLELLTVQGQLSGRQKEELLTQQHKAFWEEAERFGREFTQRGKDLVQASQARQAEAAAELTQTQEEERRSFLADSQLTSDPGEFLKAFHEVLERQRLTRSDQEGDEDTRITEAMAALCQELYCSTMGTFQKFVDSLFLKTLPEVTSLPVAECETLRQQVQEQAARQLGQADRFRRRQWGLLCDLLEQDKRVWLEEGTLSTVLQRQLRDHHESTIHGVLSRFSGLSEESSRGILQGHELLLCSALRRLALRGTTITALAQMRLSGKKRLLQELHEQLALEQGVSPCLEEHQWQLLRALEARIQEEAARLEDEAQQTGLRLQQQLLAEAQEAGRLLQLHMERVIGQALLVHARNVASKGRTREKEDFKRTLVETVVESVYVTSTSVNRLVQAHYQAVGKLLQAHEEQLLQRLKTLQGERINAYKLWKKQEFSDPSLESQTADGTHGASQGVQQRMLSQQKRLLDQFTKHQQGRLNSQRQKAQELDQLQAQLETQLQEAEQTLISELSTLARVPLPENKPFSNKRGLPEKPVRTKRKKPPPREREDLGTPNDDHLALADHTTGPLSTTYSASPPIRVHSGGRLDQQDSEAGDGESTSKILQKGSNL


The binders below were run against T1, EVC (endogenous mouse EVC protein) (mouse (endogenous in MEFs)) (assay: affinity purification with mass spectrometry; mouse monoclonal anti-EVC on Dynabeads; lysates of serum-starved Evc+/+ MEFs, Evc-/- MEFs as negative control; 1X IP buffer with 25 mM NaCl, overnight at 4°C; LC-ESI-MS/MS; n = 3).

Binder | binding
EFCAB7 (endogenous, MEFs) (protein, UniProt Q8VDY4 1-628) MASNPGSDAALGTQNPLLSGSPRTKKFPLTEQEVFYMNCRAAYLTIFKSSLENIISKDQLYLALQHAGRNPSQKTINKYWTPQTAKLNFDDFCIILSKEKPTSKAELLKSFKKLDVNDDGAILHSDLQKYLTKRGEKMTQEEVNAVINLADINANGKFDYVKFCKLYMTTSEQCLKTTLERLEADSKLRRQQFGSHMEGSPERGPSPAPKPSPRVIRKNDQETFSSKGDTSHALLSTTRKFKTSVSFTMTMSANSNQDSTLTEPNLKDWQCAQSKGCFFLEEDGEVVSHQYKMHIAQRSVLYLTIKPLYLSQVEGKRCPWLSVDTALYILKKNENPAEPQLMCFTELRNREVFGWTGELEAGIYWLIPSTTGCRLKKETKPVTEEAQLVHRDETGELSLTSEFRSTLSEIFEVIDLDGNGLISLEEYNFFELRTSGEKCDEDAWAVCRENFDTKKNELTRQGFMDLHLMEANDREGDPLDLWVTLHSMGYNKALELTEACPFVINIYAERCKPRIKVVHMEACSGQLEKAICKSVLDRSDAKVMDGYENIIVHTCNYDTWITSIIENKSDNKVIIHINNELSKNCVNNRGLNIFAVEVAPRSTMVCQHVMPLNEQEEWIYCCVYSLVA | binds
Mesothelin (MSLN) (protein, UniProt Q61468 36-600) QTQTTKTSQEATLLHAVNGAADFASLPTGLFLGLTCEEVSDLSMEQAKGLAMAVRQKNITLRGHQLRCLARRLPRHLTDEELNALPLDLLLFLNPAMFPGQQACAHFFSLISKANVDVLPRRSLERQRLLMEALKCQGVYGFQVSEADVRALGGLACDLPGKFVARSSEVLLPWLAGCQGPLDQSQEKAVREVLRSGRTQYGPPSKWSVSTLDALQSLVAVLDESIVQSIPKDVKAEWLQHISRDPSRLGSKLTVIHPRFRRDAEQKACPPGKEPYKVDEDLIFYQNWELEACVDGTMLARQMDLVNEIPFTYEQLSIFKHKLDKTYPQGYPESLIQQLGHFFRYVSPEDIHQWNVTSPDTVKTLLKVSKGQKMNAQAIALVACYLRGGGQLDEDMVKALGDIPLSYLCDFSPQDLHSVPSSVMWLVGPQDLDKCSQRHLGLLYQKACSAFQNVSGLEYFEKIKTFLGGASVKDLRALSQHNVSMDIATFKRLQVDSLVGLSVAEVQKLLGPNIVDLKTEEDKSPVRDWLFRQHQKDLDRLGLGLQGGIPNGYLVLDFNVREAFS | binds
EVC2 (endogenous, MEFs) (protein, UniProt Q8K1G2 30-1220) SGPRALPPSFPALGPGSPSRPGPAGPWASSQYSDISREARGPFENGVIFQKCSLVSGQSESQTMHVQLSVNNTRTPTSVNLSNLLVLDEITGLAVKESPGNNTQDGIQTFRKSFLQVGECYSVSYTASLDPTALGTGESLDLPARLIFQSPSQNRTQLKAPFTITVEEKIMVLPNHGLHAAGFIAAFLISLLLTVAALFFLARGRCLQGGMLSRCRIQHPENKLEPSPFTSANGVSQDLSLNDQVVAILTSEEPGSMLQALEELEIATLNQADADLEACRNQISKDIIALLMKNLVSGGHLSPQTERKMAAAFKKQFLLLENEIQEEYERKMLALTAECDLEMRKKTENQYQREMVAMEEAEEVLKRVSERSAAECSSLLRTLHGLEQEDMQRSLTLDQAEDFAQAHRQLAVFQRNELHSIVYTQIQSAVSKGELRPEVAKMMLQDYSKTQESVEELMDFFQATKRYHLSKRFGHREYLVQRLQAMETRVQGLLNTAATQLTSLIHKHERAGYLDEDQMETLLERAQTETFSIKQKLDNDLKQEKKRLHQRLITRRRRELLQKHKEQQKEQVSLGEASSTAEDAVQYLHQWRSVMAEHTAALEELQERLDQAALDDLRVLTVSLSEKATEELRRLQSTAMTQELLKRSAPWLFLQQILEEHSRESAARTTQLEAEERERGQELVQGVRQRLQQDALEAYTEEQAELRHWEHLVFMKLCCAAISLSEEDLLRVRQEAQGCFSQLDRSLALPRVRARVLQQQAQMAWREAEFRKLDQALAAPELQSKARKLRSKGRGKADLLKKNLEDKIRLFEERAPVELADQVRGELLQERVQRLEAQEAHFAESLVALQFQKVARAAETLSVYTALLSIQDLLLGELSESETLTKSACVQILESHRPELQELQELERKLEDQLVQQEEAEQQRVLESWQRWAADGPGLSEPEEMDPERQVSAILRQALNKGQKLLEQHQQRVREEWQNGAVLEDSLESIEADTMASLCSQGLRLVSYLSRMTMVPGSTLLRLLSVVLPAASQPQLLALLDAVSEKHSDHTAENESSGEQAQAEQSKRRKHQVWWKVLDSRFRADLVSQGLERMLWARQKKERILKKIYVPVQERVMFPGKGSWPHLSLEPIGELAPIPITGADAMDILNTGEKIFVFRSPREPEISLRVPPRRKKNFLNAKKANRALGLD | binds
ANKZF1 (protein, UniProt Q80UU1 1-748) MAKPAGDAAVGSRSGELFLPSVSSSATSPAPSAAPAPASVSLLSLNGEAPLIRGLSLVSQAPGEALAWAPRTSCPGENTSSGGKVSPYSLEISEKLFCSACDQIFQNHQEQREHYKLDWHRFNLKQRLKNKPLLSASDFEQQSSTGDLSSISGSDDTDSSSEEDLLPLDEGRAESEKPNRPPGFYPHRVLFKNAQGQFLYAYRCVLGPHQIPPEKAELLLQNLQNGGPRYYVVLMAAAGHFAGAIFQGREVVAHKTFHRYTVRAKRGTAQGLQDAHGRASRSAGANLRRYNEAMLYKDVRNLLAGPIWSKALGEAETVLFRAPRSGRSLFFGGQGAPLQRDDPRLWDIPLTTRRPTFGELQRVLHKLTTLQVYDEDPREMVRFHSPETHWKPVREERKKDTEKEKTKVPSDANKPLGQDEEPLKQGSESQEEDGSEVELELVELTLGTLDLREFEVLPKRRRRRKKKERSQEQQCGAHGPLPQQPQDEPFSQPTQEVETPLDTLVYEAKAPGQPELWDTLLAACRAGEVEVLKLQLATGLVDPGVKSLLNAPLGSGGFTLLHAAAAAGRGLVVRLLLEAGADPTVQDSRARPPYTVAADKSTRNEFRRFMEKNLDAYDYNKARVPGPLTQEMEARQATRKKEQKAARRQREQQQRKQREQEEQEQEEQRRFAALSDREKRALAAERRLAAQLGAPSPPVPDSAVASAGRCWSCGVSLQGLIPFHYLDFSFCSTRCLRDHRSQAGRPSS | binds
MPP7 (protein, UniProt Q8BVD5 1-576) MPALATGSACDMGLYELLAALPAQLQPHVDSQEDLTFLWDVFGEKSLHSLVKIHEKLHCYEKQNPLPILHGAAALADDLTEELQNKLPNSEIRELLKLLSKPNVKALLSVHDTVAQKSYDPVLPPVPDDIDDEEDSVKIIRLVKNSEPLGATIKKDEQTGAITVARIMRGGAADRSGLIHVGDELREVNGIPVEDKRPEEIIKILSQSKGAITFKIIPSTKEETPSKEGKIFIKALFDYDPKEDKAIPCKEAGLSFRKGDILQIMSQDDVTWWQAKHEGDANPRAGLIPSKHFQERRLALRRPEIVVQPLKLSNTKSSGFRRSFRLSRKNKKINKSMYECKKSEQYDTADVPTYEEVTPYRRQIHDKYRLIVLVGPVGVGLNELKRKLLMSDAQHYGVIVPHTTRARRSQESDGVEYIFISKHLFETDVQINKFIEYGEYKNNYYGTSIDSVRSVLAKNKVCLLDVQPHTVKHLRTLEFKPYVIFIKPPSIERLRETRKNAKIISSRDDQGTAKPFTEEDFQEMIKSAQIMESQYGHLFDKIIINDDLTVAFNELKTTFDKLETDTHWVPVSWLHS | binds

The next lines start with the values.

binding | Binder
binds | Uroplakin UPK3B (protein, UniProt Q80YF6 27-275) LDLIAYVPQITAWDLEGKITATTFSLEQPRCVFDEHVSTKDTIWLVVAFSNASRDFQNPQTAAKIPTFPQLLTDGHYMTLPLSLDQLPCEDLTGGSGGAPVLRVGNDFGCYQRPYCNAPLPSQGPYSVKFLVMDAAGPPKAETKWSNPIYLHQGKNPNSIDTWPGRRSGCMIVITSILSALAGLLLLAFLAASTTRFSSLWWPEEAPEQLRIGSFMGKRYMTHHIPPSEAATLPVGCEPGLDPLPSLSP
binds | Uroplakin UPK1B (protein, UniProt Q9Z2C6 1-260) MAKDDSTVRCFQGLLIFGHVIVGMCGIALTAECIFFVSDQHSLYPLLEATNNDDIFGAAWIGMFVGICLFCLSVLAIVGIMKSNRKILLAYFIMMFIVYGFEVASCITAATQRDFFTTNLFLKQMLMRYQNNSPPTNDDEWKNNGVTKTWDRLMLQDHCCGVNGPSDWQKYTSAFRVENNDADYPWPRQCCVMDKLKEPLNLDACKLGVPGYYHSQGCYELISGPMDRHAWGVAWFGFAILCWTFWVLLGTMFYWSRIEY
